Experimental findings from paper doi:10.1101/2023.01.07.523122 are described below.

Experiment [1] concerns the target T1, mKate2::3xFLAG::DRL-1 (C. elegans) (UniProt Q86ME2).
T1 sequence: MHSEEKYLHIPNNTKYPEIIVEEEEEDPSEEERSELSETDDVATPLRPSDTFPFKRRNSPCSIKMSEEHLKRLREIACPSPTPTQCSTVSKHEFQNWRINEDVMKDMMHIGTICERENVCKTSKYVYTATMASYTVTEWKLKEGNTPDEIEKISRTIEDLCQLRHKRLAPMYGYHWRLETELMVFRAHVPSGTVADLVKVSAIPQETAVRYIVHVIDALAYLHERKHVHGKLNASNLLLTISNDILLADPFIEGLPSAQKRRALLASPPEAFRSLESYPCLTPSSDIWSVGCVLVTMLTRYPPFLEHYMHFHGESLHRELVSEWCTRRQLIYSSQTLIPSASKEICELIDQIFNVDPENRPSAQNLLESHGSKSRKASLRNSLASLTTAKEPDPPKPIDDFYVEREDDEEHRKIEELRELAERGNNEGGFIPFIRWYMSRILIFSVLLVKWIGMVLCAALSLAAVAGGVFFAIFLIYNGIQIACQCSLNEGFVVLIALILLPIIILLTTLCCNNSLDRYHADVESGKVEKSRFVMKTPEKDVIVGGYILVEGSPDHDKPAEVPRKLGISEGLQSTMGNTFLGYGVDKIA
Kind of experiment: co-IP.

Experiment [2] concerns the target T2, 3xHA::mGL::FLR-4 (C. elegans) (UniProt Q9NLA1).
T2 sequence: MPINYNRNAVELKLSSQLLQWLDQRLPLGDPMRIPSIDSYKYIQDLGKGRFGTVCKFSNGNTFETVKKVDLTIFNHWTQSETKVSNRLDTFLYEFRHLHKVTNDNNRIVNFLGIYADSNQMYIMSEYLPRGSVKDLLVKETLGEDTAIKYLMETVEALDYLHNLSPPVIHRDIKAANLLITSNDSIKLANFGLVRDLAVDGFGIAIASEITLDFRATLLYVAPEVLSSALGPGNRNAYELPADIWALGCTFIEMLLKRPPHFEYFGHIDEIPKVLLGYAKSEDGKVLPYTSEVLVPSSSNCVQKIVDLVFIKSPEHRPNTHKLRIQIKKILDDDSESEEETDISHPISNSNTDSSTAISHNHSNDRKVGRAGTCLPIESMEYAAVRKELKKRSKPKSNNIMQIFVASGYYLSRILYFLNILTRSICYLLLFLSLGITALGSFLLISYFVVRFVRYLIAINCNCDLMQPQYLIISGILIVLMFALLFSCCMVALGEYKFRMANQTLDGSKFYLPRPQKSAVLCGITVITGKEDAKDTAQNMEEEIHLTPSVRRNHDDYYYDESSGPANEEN
Kind of experiment: co-IP.

These are yes or no findings as the source states them, for the method shown. In cells and extracts the contact can be indirect. Some entries that bind do so weakly or less than the wild type. Tags and fused reporters may be left off the sequences shown.

B1: 3xHA::mGL::FLR-4 (enzyme, UniProt Q9NLA1 1-570)
chain: MPINYNRNAVELKLSSQLLQWLDQRLPLGDPMRIPSIDSYKYIQDLGKGRFGTVCKFSNGNTFETVKKVDLTIFNHWTQSETKVSNRLDTFLYEFRHLHKVTNDNNRIVNFLGIYADSNQMYIMSEYLPRGSVKDLLVKETLGEDTAIKYLMETVEALDYLHNLSPPVIHRDIKAANLLITSNDSIKLANFGLVRDLAVDGFGIAIASEITLDFRATLLYVAPEVLSSALGPGNRNAYELPADIWALGCTFIEMLLKRPPHFEYFGHIDEIPKVLLGYAKSEDGKVLPYTSEVLVPSSSNCVQKIVDLVFIKSPEHRPNTHKLRIQIKKILDDDSESEEETDISHPISNSNTDSSTAISHNHSNDRKVGRAGTCLPIESMEYAAVRKELKKRSKPKSNNIMQIFVASGYYLSRILYFLNILTRSICYLLLFLSLGITALGSFLLISYFVVRFVRYLIAINCNCDLMQPQYLIISGILIVLMFALLFSCCMVALGEYKFRMANQTLDGSKFYLPRPQKSAVLCGITVITGKEDAKDTAQNMEEEIHLTPSVRRNHDDYYYDESSGPANEEN
With B1, the binding result in experiment [1] is given as “binds”.

B2: mKate2::3xFLAG::DRL-1 (enzyme, UniProt Q86ME2 1-589)
chain: MHSEEKYLHIPNNTKYPEIIVEEEEEDPSEEERSELSETDDVATPLRPSDTFPFKRRNSPCSIKMSEEHLKRLREIACPSPTPTQCSTVSKHEFQNWRINEDVMKDMMHIGTICERENVCKTSKYVYTATMASYTVTEWKLKEGNTPDEIEKISRTIEDLCQLRHKRLAPMYGYHWRLETELMVFRAHVPSGTVADLVKVSAIPQETAVRYIVHVIDALAYLHERKHVHGKLNASNLLLTISNDILLADPFIEGLPSAQKRRALLASPPEAFRSLESYPCLTPSSDIWSVGCVLVTMLTRYPPFLEHYMHFHGESLHRELVSEWCTRRQLIYSSQTLIPSASKEICELIDQIFNVDPENRPSAQNLLESHGSKSRKASLRNSLASLTTAKEPDPPKPIDDFYVEREDDEEHRKIEELRELAERGNNEGGFIPFIRWYMSRILIFSVLLVKWIGMVLCAALSLAAVAGGVFFAIFLIYNGIQIACQCSLNEGFVVLIALILLPIIILLTTLCCNNSLDRYHADVESGKVEKSRFVMKTPEKDVIVGGYILVEGSPDHDKPAEVPRKLGISEGLQSTMGNTFLGYGVDKIA
With B2, the binding entry in experiment [2] is “binds”.
